Laboratory results: PubChem BioAssay AID504808 (Drosophila RNAi Screening Center, 2011)

- Screen: 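Chromatin factors that keep E2F targets switched off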 (primary screen)
- Cells: Drosophila S2 cells
- Reagent: long dsRNA against Drosophila genes
- Read-out: 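Dual luciferase plate measurements; E2F-specific signal taken as firefly over Renilla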
- Scale: E2F firefly: higher = more E2F reporter activity; Renilla normaliser: higher = more normaliser reporter signal
- Call rule: 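a knock-down counted as active when the firefly/Renilla E2F signal rose above 50%, a threshold chosen arbitrarily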
The deposit covers about 21,000 reagents; shown is an unselected part of those that have a named target and a result. Over the whole deposit, 18 (0.084%) got an active call. 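Raw counts without plate normalisation, one of two replicates; the ratio scores behind the calls were not deposited.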 Reagents against one gene are numbered here. A plus sign joins genes that one reagent is predicted to hit. The record does not give: the amount of reagent, the time to read-out.

Target gene,reagent,"E2F firefly, rep 1","Renilla normaliser, rep 1",Call
Nubp2 (GeneID 40282),1,1.29e5,6195,inactive
CG33340 (GeneID 2768682),1,1.05e5,6324,inactive
CG8066 (GeneID 41766),1,1.11e5,6372,inactive
Tsp5D (GeneID 31540),1,1.14e5,6059,inactive
CG9426 (GeneID 34719),1,90376,4279,inactive
Nep3 (GeneID 33005),1,1.47e5,7351,inactive
lectin-28C (GeneID 53542),1,1.48e5,5408,inactive
CG33160 (GeneID 326265),1,1.08e5,4910,inactive
Cyp1 (GeneID 32595),1,10515,812,inactive
CG13991 (GeneID 33868),1,1.58e5,5351,inactive
CG14327 (GeneID 42118),1,1.05e5,5510,inactive
Cpr65Az (GeneID 38712),1,1.14e5,4002,inactive
GlyT (GeneID 37772),1,92275,3902,inactive
Dh44-R1 (GeneID 36601),1,152,39,inactive
Sgsh (GeneID 42266),1,1.29e5,7866,inactive
CG2574 (GeneID 32190),1,66227,3167,inactive
CG14762 (GeneID 35768),1,1.33e5,5385,inactive
CG14762 (GeneID 35768),2,1.40e5,5173,inactive
CG14135 (GeneID 39316),1,61509,1714,inactive
ND6 (retired record) (GeneID 192479),1,1.29e5,6101,inactive
Polr2M (GeneID 42309),1,1.45e5,8076,inactive
CG2790 (GeneID 37992),1,88700,3832,inactive
CG34284 (GeneID 5740234),1,1.32e5,10126,inactive
Cdc14 (GeneID 34067),1,1.58e5,4533,inactive
CG34203 (GeneID 5740243),1,1.13e5,3979,inactive
Gr10b (GeneID 32085),1,1.36e5,7173,inactive
Hsc70-1 (GeneID 39542),1,75153,5209,inactive
CG32305 (GeneID 317967),1,1.02e5,4489,inactive
alpha-Man-IIb (GeneID 41913),1,72129,3877,inactive
CG32069 + Blos2,1,68821,3480,inactive
PKD (GeneID 42203),1,1.43e5,7127,inactive
Sb (GeneID 41958),1,1.18e5,7016,inactive
CG4572 (GeneID 42360),1,86087,4323,inactive
CG11068 (GeneID 32357),1,1.44e5,6136,inactive
cwo (GeneID 44669),1,94916,6226,inactive
eRF1 (GeneID 40240),1,74436,4283,inactive
Cpr49Ag (GeneID 36353),1,99824,4580,inactive
CG13869 + CG11099,1,1.48e5,5252,inactive
CG3662 (GeneID 33260),1,97518,3453,inactive
mRpS11 (GeneID 42061),1,1.29e5,5538,inactive
SmD3 (GeneID 36306),1,67421,3847,inactive
CG15771 (GeneID 31500),1,76932,4305,inactive
CG6709 + Hez,1,1.22e5,6831,inactive
CG6709 + Hez,2,1.11e5,6325,inactive
betaNACtes4 (GeneID 32389),1,1.34e5,5522,inactive
ey (GeneID 43812),1,53761,4188,inactive
CG18302 (GeneID 34452),1,1.48e5,4883,inactive
ATPsynF (GeneID 37931),1,86911,3804,inactive
CG31957 (GeneID 319046),1,1.35e5,5842,inactive
Diap2 (GeneID 36748),1,67423,3246,inactive
Ptp99A (GeneID 43469),1,79896,3209,inactive
Ptp99A (GeneID 43469),2,88074,3232,inactive
Ptp99A (GeneID 43469),3,1.34e5,6720,inactive
Ptp99A (GeneID 43469),4,1.28e5,5901,inactive
Ptp99A (GeneID 43469),5,1.33e5,6166,inactive
fabp + sea,1,75523,3737,inactive
fabp + sea,2,75878,3788,inactive
